The other results are listed elsewhere or left out.

This experiment deals with T1, OsSMF1 (Oryza sativa, UniProt Q6ZLB0 1-436).
T1 sequence: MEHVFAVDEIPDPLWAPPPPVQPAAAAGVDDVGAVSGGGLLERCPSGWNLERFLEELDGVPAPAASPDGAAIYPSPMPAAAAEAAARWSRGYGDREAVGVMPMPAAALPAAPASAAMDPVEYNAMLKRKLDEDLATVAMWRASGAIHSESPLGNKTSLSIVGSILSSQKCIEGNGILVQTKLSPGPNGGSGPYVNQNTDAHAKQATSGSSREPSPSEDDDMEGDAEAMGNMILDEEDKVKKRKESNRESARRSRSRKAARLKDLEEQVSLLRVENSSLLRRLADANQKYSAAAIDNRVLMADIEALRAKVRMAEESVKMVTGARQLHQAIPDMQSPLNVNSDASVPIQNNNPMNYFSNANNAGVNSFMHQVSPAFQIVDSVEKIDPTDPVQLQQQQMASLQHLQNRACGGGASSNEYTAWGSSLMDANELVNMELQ
Kind of experiment: protein-binding microarray (RPBM); PBS, 2% BSA, 51.3 ng/ul salmon testes DNA, 50 uM zinc acetate, 200 nM TF, 25 C, 1 h; high values mean tight binding. The following applies: protein: recombinant; tags: N-terminal polyhistidine and DsRed monomer fusion (pET32a); chain copies: 2; label: CyDye5-dUTP incorporated in the synthesized complementary strand; 3' TTTTT single-stranded linker to array surface; dsDNA, one strand shown. A digest of the protocol: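 Transcription factors were each fused at the N-terminus to a polyhistidine tag plus DsRed and expressed in E. coli BL21-CodonPlus before Ni–NTA purification. Binding to a double-stranded custom Agilent array was carried out with 200 nM protein at 25 °C for 1 h in PBS, 2% BSA, salmon testes DNA and 50 µM zinc acetate. The binding signal is per-feature fluorescence intensity, in arbitrary units, on an Axon 4000B scanner.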
Consider “TAATATATGTTGAGTTAATGCCATGTCACGCTTGCTCTATCGGAGTCACCTAGTGCAG”, for which the binding signal is 13000 fluorescence intensity (a.u.). In the case of “ATAACTACTTGATATGTGTCACCACAAGATTTACACAAACCGGAGTCACCTAGTGCAG”, the binding signal was 4810 fluorescence intensity (a.u.). Then “GGTAATGGCGTTTCTGGTCCTACCTGGATGCACTGGGTCTCGGAGTCACCTAGTGCAG”, with 3180 fluorescence intensity (a.u.); and “TGCCGGTCCGACGGCCAGGATCCGTCCACGTGTCCTCCCGCGGAGTCACCTAGTGCAG”, with 16200 fluorescence intensity (a.u.); and “GGGGCGCCGGGAAGGAGGGCGCTGTGTGGGAGGGAGGGAGCGGAGTCACCTAGTGCAG”, with 3370 fluorescence intensity (a.u.). Then “TTTGCCCATTTTATTCCCTTGCGTCATCCATTTACTGCTTCGGAGTCACCTAGTGCAG”, with 13800 fluorescence intensity (a.u.); and “TCCTTTGCCTTCAAAGGCATCGTGCCTTTGTCACTTACATCGGAGTCACCTAGTGCAG”, with 17100 fluorescence intensity (a.u.); and “TAACTGCGTTGACATGTCGCCTTGCTATACTCACATTCTTCGGAGTCACCTAGTGCAG”, with 3240 fluorescence intensity (a.u.). Next, “ACTGGACACCATAGCTTCTTCGCCCGTCGTTTGCCTATCTCGGAGTCACCTAGTGCAG”: 3190 fluorescence intensity (a.u.); “ACGAGCTCCGGGGAGGAGAAGTGGCAGTGCTTGGCGAGGACGGAGTCACCTAGTGCAG”: 3250 fluorescence intensity (a.u.); “CTCCAATTTCACCAGTTCGACTATCCACGCCATATCCTCTCGGAGTCACCTAGTGCAG”: 3660 fluorescence intensity (a.u.). For “GTGTTTGAGTTGGATTATACGCTCGTTTGCTTTTGGAAATCGGAGTCACCTAGTGCAG”, the binding signal is 4530 fluorescence intensity (a.u.).

For the sequence “TGATGGCCCAGCCCGCCAGCCACCTCCGCAAGTCCGCATCCGGAGTCACCTAGTGCAG”, the binding signal was 30200 fluorescence intensity (a.u.).

For “CTCCGTTCTACTCCAGTACACTGTAACACTGTTGTTGGCGCGGAGTCACCTAGTGCAG”, the binding signal is 14500 fluorescence intensity (a.u.).

For “CCATTAACAAACTAAAATGACAGCTCCGCACTGCCCCAACCGGAGTCACCTAGTGCAG”, the binding signal was 4980 fluorescence intensity (a.u.). As to “CTAGCTTACACAGGTGTGTGGGCCCACCACGCGTGCTGGGCGGAGTCACCTAGTGCAG”, the binding signal is 3650 fluorescence intensity (a.u.). Consider “CTTCTGGTCAAAGGATGACATCAATCCCTATCATCTCATCCGGAGTCACCTAGTGCAG”, for which the binding signal is 4630 fluorescence intensity (a.u.). As for “CAGTTCCTAATTTTGCACTGAATCAGCGCCACTGATGCATCGGAGTCACCTAGTGCAG”, the binding signal is 3460 fluorescence intensity (a.u.). In the case of “TTATTATTATTGGATGGTTAGATGACAAATCCAACCTCACCGGAGTCACCTAGTGCAG”, the binding signal is 3640 fluorescence intensity (a.u.). Then “TGCGGAGCGTACATGTGGCCCAATAGTGTGGGCGGCCTGGCGGAGTCACCTAGTGCAG”, with 3360 fluorescence intensity (a.u.). Next, “TACTATTAGGTATGTGGTATCCATAACCCTGACACATACCCGGAGTCACCTAGTGCAG”: 3600 fluorescence intensity (a.u.); “CGTGAACCCCATGTGTCAGCCTCATCTCCCTTCTTCCCTCCGGAGTCACCTAGTGCAG”: 3290 fluorescence intensity (a.u.). “TTCGTGATTTCGCACGGCTACTATCGTAGATCGAAGGGGACGGAGTCACCTAGTGCAG”: the binding signal is 4040 fluorescence intensity (a.u.). With “AATTCGTTTTGAACACCATACGTCAGTTCGTCTAGAAGCACGGAGTCACCTAGTGCAG”, the binding signal is 4360 fluorescence intensity (a.u.). For “ACTACCATTGCTGATGTCGTTGTCACCGCTACGTCATCATCGGAGTCACCTAGTGCAG”, the binding signal was 16700 fluorescence intensity (a.u.). Next, “GACTTGCATTATGAAACGGAGGAAGTATGTCGCCAGGCTCCGGAGTCACCTAGTGCAG”: 4670 fluorescence intensity (a.u.); “CATACGCGCGTGAACACTCCACATCAGCCTTTTCGAAGACCGGAGTCACCTAGTGCAG”: 9790 fluorescence intensity (a.u.); “CACAAGTAGCAAGCCAAGTAGATTGTTGGTTTGCTTCCCTCGGAGTCACCTAGTGCAG”: 3410 fluorescence intensity (a.u.). “GTTCGCGGGCCGCGAACGTCCACGTACTAGACGCCCCTCACGGAGTCACCTAGTGCAG”: the binding signal is 4050 fluorescence intensity (a.u.).

In the case of “CTTGATTCCTCTGTCTATTTAACGATTTGGACGAGGAAGCCGGAGTCACCTAGTGCAG”, the binding signal was 18300 fluorescence intensity (a.u.).

As for “GAAAATGTTATGGTCAATGACATGTGGGCCATGCAATTACCGGAGTCACCTAGTGCAG”, the binding signal is 3280 fluorescence intensity (a.u.). Then “TATTTATCAATTATCCATGACGTAAGTCTTATGCAATATGCGGAGTCACCTAGTGCAG”, with 3840 fluorescence intensity (a.u.); and “AGCATCCACACGTGCGTTTCTTTTCTTTTCTTTCCGGCCGCGGAGTCACCTAGTGCAG”, with 4020 fluorescence intensity (a.u.); and “ATGACCCAATCAGTTGTGTCACCCTGCCATTACGCATCTCCGGAGTCACCTAGTGCAG”, with 3530 fluorescence intensity (a.u.).

Consider “GCGGCGTGACGCGGAGGCGCTCGCCCGGGCCATGGATGAGCGGAGTCACCTAGTGCAG”, for which the binding signal was 23400 fluorescence intensity (a.u.). Then “CTGTCTGTCTGACCGGCTCTATGACGATAGTCAGACTTGTCGGAGTCACCTAGTGCAG”, with 3760 fluorescence intensity (a.u.); and “ACCTACCCGACCGTTGCGTTGCCCTCCCAAAACCAAACCACGGAGTCACCTAGTGCAG”, with 3320 fluorescence intensity (a.u.). Consider “TTTAGCATAACAAGAACTAAGGGCATCACCAATATATATGCGGAGTCACCTAGTGCAG”, for which the binding signal was 4190 fluorescence intensity (a.u.). Then “TTTGAAACTTGCTGACAGTAATGATTCTACATGTCAGCCTCGGAGTCACCTAGTGCAG”, with 4230 fluorescence intensity (a.u.); and “GTTTTGTTTTAATTCAGTAGCTACACGTACTACTAGCTTTCGGAGTCACCTAGTGCAG”, with 4210 fluorescence intensity (a.u.); and “CGTGGTTGTTTTATCTAGGATGTGGACGTGGCATCCTATTCGGAGTCACCTAGTGCAG”, with 8330 fluorescence intensity (a.u.).

For the sequence “GGAGCGGGGTACGCATCTGTACCTGTACGGGATCCCGGCGCGGAGTCACCTAGTGCAG”, the binding signal was 3750 fluorescence intensity (a.u.).

On to “GCAGGTCAAGCGGTCACCCTCACTCCACCATTGTCATCTTCGGAGTCACCTAGTGCAG”, for which the binding signal was 3390 fluorescence intensity (a.u.). Then “ACATCCCGTCCATTGCTCCTAGCACACGCATGCGTCGCCACGGAGTCACCTAGTGCAG”, with 3490 fluorescence intensity (a.u.). Next, “GCACGGGAAACTAAGCTGCAGTGACCACCCACGTGCCGTGCGGAGTCACCTAGTGCAG”: 6660 fluorescence intensity (a.u.); “TCTATCATAACTATCCTCCCAATCTCGACATTACATCATCCGGAGTCACCTAGTGCAG”: 3970 fluorescence intensity (a.u.). For the sequence “CCCGACTCCTAACTGCCCACTCCGATTTGACGCCATCTGCCGGAGTCACCTAGTGCAG”, the binding signal was 3700 fluorescence intensity (a.u.). Turning to “TGTACCTGCAACCACAGTTTAGCACATTCTAATTCGAAATCGGAGTCACCTAGTGCAG”, the binding signal is 4630 fluorescence intensity (a.u.). Then “CATGTCTTCCGCCGCCGTTGCCAGATGACACGGCAGCCACCGGAGTCACCTAGTGCAG”, with 4820 fluorescence intensity (a.u.); and “TTGTTAATCACAACACCAGGTACATCGTCAAGTTCAACTTCGGAGTCACCTAGTGCAG”, with 30700 fluorescence intensity (a.u.); and “AGGTTGGAATCGACGTTTCGTCGTAGCCGTCCATAGGAAACGGAGTCACCTAGTGCAG”, with 31100 fluorescence intensity (a.u.). Take “TCTTGCCAGTGTGCCATGTGTAATGTTGTTCAGTGAAATGCGGAGTCACCTAGTGCAG”: the binding signal was 4010 fluorescence intensity (a.u.).

Regarding “GCGCAGGACGTGGGCGGTGGAGTCCCGGGGATACGTGTAGCGGAGTCACCTAGTGCAG”, the binding signal is 4130 fluorescence intensity (a.u.).

Regarding “GCGCAAGTTCTCCACAAGCCACCTCGATCGATCTCCATTGCGGAGTCACCTAGTGCAG”, the binding signal is 3420 fluorescence intensity (a.u.).

The record behind these values is article PMC7819943, “Rice protein-binding microarrays: a tool to detect cis-acting elements near promoter regions in rice”.
